# Values joined by “and” are separate entries in the source; they are usually repeats but may differ in a detail not shown here. Equal values may be shown once. About 6,100 (1.1%) of roughly 580,000 compounds were called active. Inconclusive means that the source gave no clear call. Such entries were picked first, then a sample of the others. Calls follow the shape of the dose curve; as a rule, active = well fitted inhibition curve with a large enough effect; inconclusive = small, poorly fitted or top-dose-only effect, or another doubt; inactive = no such curve, though single readings can be large or run the other way. Potencies of inconclusive entries are doubtful fits and often do not repeat.
# The chains behind the UniProt entries cited, without tags or fusion partners. Where a name states a change or a piece, a line headed by the entry shows the natural chain unless it says otherwise.
# UniProt P18054: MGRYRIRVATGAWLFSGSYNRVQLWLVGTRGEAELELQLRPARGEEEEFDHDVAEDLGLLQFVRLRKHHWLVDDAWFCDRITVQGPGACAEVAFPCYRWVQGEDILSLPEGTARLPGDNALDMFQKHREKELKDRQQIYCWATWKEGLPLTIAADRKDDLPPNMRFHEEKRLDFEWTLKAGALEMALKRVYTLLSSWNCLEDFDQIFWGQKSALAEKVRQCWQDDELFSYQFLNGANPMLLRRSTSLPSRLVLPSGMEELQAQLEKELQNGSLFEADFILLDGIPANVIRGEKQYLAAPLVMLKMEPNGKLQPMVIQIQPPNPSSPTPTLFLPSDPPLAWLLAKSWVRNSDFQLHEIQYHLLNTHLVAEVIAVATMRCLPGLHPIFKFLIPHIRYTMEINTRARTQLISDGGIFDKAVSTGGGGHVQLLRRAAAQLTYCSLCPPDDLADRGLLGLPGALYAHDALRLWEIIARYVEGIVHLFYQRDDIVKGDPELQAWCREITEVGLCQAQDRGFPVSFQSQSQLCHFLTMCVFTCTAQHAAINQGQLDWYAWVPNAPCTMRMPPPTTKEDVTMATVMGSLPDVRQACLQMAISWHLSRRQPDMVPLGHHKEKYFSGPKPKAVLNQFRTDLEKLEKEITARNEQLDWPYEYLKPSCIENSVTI
# Target: Polyunsaturated fatty acid lipoxygenase ALOX12 (Homo sapiens) (UniProt P18054)
# Test: Primary qHTS assay for inhibitors of human arachidonate 12S-lipoxygenase (ALOX12): Round 2
# Conditions: purified 12hLO, xylenol orange hydroperoxide absorbance; activity change, negative = inhibition: at 108 µM (top of the series) unless noted
# In short: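 Purified human 12hLO (150 nM final) in 25 mM Hepes, 0.01% Triton X-100, pH 7.0 was preincubated 15 min at room temperature with compound. Then 40 uM arachidonic acid was added, 30 min. Hydroperoxide was read by Fe-XO absorbance ratio 573/405 nm.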
# % is scaled to controls: 0 for no effect and ±100 for the full control effect; potency is read from the fitted curve at half-maximal effect.
SMILES,Potency,"activity change, negative = inhibition"
O=C(NCC(c1cccs1)N1CCc2ccccc21)c1ccccc1 (stereo not given),"inconclusive: 112 µM [inhibitor, single point]",
COCCn1c(C)cc2c(c1=O)C(c1ccco1)C(C#N)=C(N)O2 (stereo not given),inactive,
CCN(CCN(C)C)C(=O)C1CCN(S(=O)(=O)c2c(C)noc2/C=C/c2ccccc2F)CC1,"inconclusive: 79.4 µM [inhibitor, partial curve, poor fit] and inconclusive: 44.7 µM [inhibitor, partial curve, poor fit]",
COc1ccc(C(=O)c2c(C)oc3ccc(O)c(CN4CCOCC4)c23)cc1,"inconclusive: 20 µM [inhibitor, partial curve, poor fit]",
COC(=O)Cc1c(C)c2cc3c(c(C)c2oc1=O)OCN(CCc1ccc(OC)cc1)C3,,inconclusive: -54.4% [inhibitor]
COc1cc(CCC(=O)Nc2sccc2C#N)cc(OC)c1OC,inactive,
CC(C)C(=O)Nc1cccc(NC(=O)c2ccc(Cl)cc2Cl)c1,inactive,
CCOC(=O)CSc1nnc(Cn2nnc3ccccc32)n1-c1ccc(F)cc1,"inconclusive: 6.31 µM [inhibitor, full curve, poor fit]",
C[C@H](NC(=O)c1ccccc1)C(=O)OCC(=O)Nc1ccc(Cl)cn1,"inconclusive: 28.2 µM [inhibitor, single point]",
O=C(Nc1ccc2c(c1)nc1n2CCSC1)c1ccco1,inactive,
CCC(=O)NCCCNC(=O)c1nc2ccccc2c(=O)[nH]1,inactive,
CN(C)c1oc(-c2ccccc2[N+](=O)[O-])nc1C#N,inactive,
CCOC(=O)c1ccc(NC(=S)NCc2ccco2)cc1,"inconclusive: 89.1 µM [inhibitor, partial curve, poor fit]",
O=C(CCc1cccs1)NCc1ccco1,inactive,
CC(C)N(Cc1nc(-c2ccccc2)no1)C(=O)c1ccc(Cl)cc1,"inconclusive: 50.1 µM [inhibitor, partial curve, poor fit]",
CC1(c2ccc([N+](=O)[O-])cc2)NC(=O)N(CC(=O)c2ccc3c(c2)OCO3)C1=O (stereo not given),"inconclusive: 126 µM [inhibitor, single point]",
OC1CCCN(CC(O)COC(c2ccc(F)cc2)c2ccc(F)cc2)C1 (stereo not given),"inconclusive: 0.316 µM [inhibitor, full curve, poor fit]",
COC(=O)c1ccccc1NC(=O)Cn1c(=O)n(CCCC(=O)NCc2ccccc2OC)c(=O)c2ccccc21,"inconclusive: 158 µM [inhibitor, partial curve, poor fit]",
COC(=O)C1=C(C)N(c2ccc(OC)cc2)C(C)=C(C(=O)OC)C1c1ccccc1,"inconclusive: 112 µM [inhibitor, single point]",
COc1ccc(-c2cc(=O)oc3c4c(ccc23)OCN(Cc2cccc(OC)c2)C4)cc1,,inconclusive: -41.2% [inhibitor]

SMILES,Potency,"activity change, negative = inhibition"
Cc1ccc(-c2oc3ccccc3c(=O)c2O)cc1,"inconclusive: 2.82 µM [inhibitor, full curve, poor fit]",
CC(O)CNS(=O)(=O)c1ccc(C(C)(C)C)cc1 (stereo not given),"inconclusive: 141 µM [inhibitor, partial curve, poor fit]",
COc1ccc(NC(=S)Nc2ccc(S(=O)(=O)N3CCCCC3)cc2)cc1,"inconclusive: 89.1 µM [inhibitor, single point]",
CC(c1nc2ccccc2[nH]1)n1c(=O)c(-c2ccco2)nc2ccccc21 (stereo not given),active: 12.6 µM,
O=C(c1ccc(Cl)cc1Cl)N(CCS(=O)(=O)N1CCCCC1)Cc1cccnc1,active: 0.501 µM,
Cc1ccc(-c2cc(C(F)(F)F)nn2-c2ccc(S(N)(=O)=O)cc2)cc1,"inconclusive: 19.3 µM [inhibitor, partial curve, poor fit]",
CSc1ccccc1C(=O)NC1CCCN(Cc2ccccc2F)C1 (stereo not given),"inconclusive: 39.8 µM [inhibitor, partial curve, poor fit]",
O=C1c2ccccc2C(=O)c2c(O)c(O)cc(O)c21,"inconclusive: 15.8 µM [inhibitor, full curve, poor fit] and active: 31.6 µM",
Oc1ccc(N2CCN(c3ncnc4sc(-c5ccccc5)cc34)CC2)cc1,"inconclusive: 20 µM [inhibitor, partial curve, poor fit]",
COc1ccc(C2C(C(C)=O)=C(O)C(=O)N2c2nc3ccccc3s2)cc1OC (stereo not given),active: 44.7 µM,
O=C1N[C@@H](Cc2ccccc2)COC(=O)[C@@H](Cc2ccc(F)cc2)CC/C=C/C[C@H]1CC(=O)N(CCO)Cc1ccccc1,"inconclusive: 89.1 µM [inhibitor, partial curve, poor fit]",
CCCn1nc(C(=O)Nc2nnc(CC)s2)c2ccccc2c1=O,"inconclusive: 50.1 µM [inhibitor, partial curve, poor fit]",
CNc1nc2c3ccccc3n(C(C)=O)c2s1,inactive,
O=C(c1ccco1)N1CCC2(CC1)CN(Cc1cc(C(F)(F)F)cc(C(F)(F)F)c1)C2,"inconclusive: 35.5 µM [inhibitor, single point]",
COc1ccc(-c2cc(-c3ccccc3)nc(NC(=O)CN3CCCCCC3)n2)cc1,"inconclusive: 112 µM [inhibitor, single point]",
NC(=O)Cc1csc(NC(=O)CCc2ncc(-c3ccccc3)o2)n1,"inconclusive: 44.7 µM [inhibitor, full curve, poor fit]",
CCCCOc1ccc(CSc2n[nH]c(C)n2)cc1,"inconclusive: 56.2 µM [inhibitor, full curve, poor fit]",
O=C(Nc1cccnc1)c1ccc(Cl)c(S(=O)(=O)N2CCCCC2)c1,"inconclusive: 158 µM [inhibitor, partial curve, poor fit]",
CCN1C(=O)C2CC3(CCN(Cc4cn(C)c5ccc(OC)cc45)CC3)CN2C1=O (stereo not given),"inconclusive: 35.5 µM [inhibitor, full curve, poor fit]",
CN(CCCn1ccc(NC(=O)OCc2ccccc2)nc1=O)Cc1ccco1,"inconclusive: 31.6 µM [inhibitor, single point]",

# Some of these compounds in order of molecular weight, ascending:
SMILES,Potency,"activity change, negative = inhibition"
CNc1nc2c3ccccc3n(C(C)=O)c2s1,inactive,
CCCn1nc(C(=O)Nc2nnc(CC)s2)c2ccccc2c1=O,"inconclusive: 50.1 µM [inhibitor, partial curve, poor fit]",
O=C(c1ccc(Cl)cc1Cl)N(CCS(=O)(=O)N1CCCCC1)Cc1cccnc1,active: 0.501 µM,

# From PubChem BioAssay AID1671190 (National Center for Advancing Translational Sciences (NCATS), 2021)
